Publication PMC10531356, “Hardening of Respiratory Syncytial Virus Inclusion Bodies by Cyclopamine Proceeds through Perturbation of the Interactions of the M2-1 Protein with RNA and the P Protein” (International Journal of Molecular Sciences, 2023)
Like-named read-outs stand apart in the source and are kept apart here. These are yes or no findings as the source states them, for the method shown. Some entries that bind do so weakly or less than the wild type. Sequences can lack the tags named with a protein.

Chains of the proteins cited; added tags and fusions are not shown.
UniProt P12579: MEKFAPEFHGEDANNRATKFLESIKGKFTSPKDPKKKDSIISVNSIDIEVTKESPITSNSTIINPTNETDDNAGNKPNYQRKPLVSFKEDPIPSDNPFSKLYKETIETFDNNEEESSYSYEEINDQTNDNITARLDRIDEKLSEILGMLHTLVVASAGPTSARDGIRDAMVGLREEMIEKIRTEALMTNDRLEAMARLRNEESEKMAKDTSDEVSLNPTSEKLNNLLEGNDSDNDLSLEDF

Assays:
[1] = target: T1, GST-M2-1core (human respiratory syncytial virus (hRSV), strain Long) (UniProt P04545); assay: pull-down; GST-M2-1core on beads incubated with purified P in PBS, 1 h at 4 °C, with 400 µM CPM or DMSO; then 160 µg/mL tRNA 30 min; SDS-PAGE and Coomassie; both purified
T1 sequence: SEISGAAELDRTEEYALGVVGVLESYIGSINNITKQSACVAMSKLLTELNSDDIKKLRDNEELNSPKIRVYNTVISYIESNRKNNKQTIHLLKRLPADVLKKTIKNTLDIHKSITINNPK

[2] = target: T1, GST-M2-1core (human respiratory syncytial virus (hRSV), strain Long); assay: as above; remark: listed apart in the source

Substance: recombinant P protein (phosphoprotein, wild type) (from UniProt P12579 1-241)
- binding [1]: binds
- binding [2]: no binding (condition: with tRNA (160 µg/mL), without CPM)
